{
  "source": "patent US10845371B2",
  "about": "“Soluble MANF in pancreatic beta-cell disorders” (University of Massachusetts, priority 2012, dated 2020)",
  "key": {"[1]": {"test_system": "human islets", "assay": "Thapsigargin-mediated cell death in primary human islets (cleaved caspase 3 / PARP immunoblot)", "assay_type": "cell-based", "settings": "10 nM thapsigargin; 10 nM apomorphine or 10 μM pioglitazone, FIG. 44", "procedure": "(§1) FIG. 44 are two immunoblots showing the amount of cleaved caspase 3 (c-caspase3) and cleaved PARP (c-PARP) present in 10 nM thapsigargin-treated primary human islets (right immunoblot) and 2 μM doxycycline-treated WFS1 knockdown INS-1 832/13 cells (shWFS1) (left immunoblot) treated with 10 nM apomorphine or 10 μM pioglitazone.\nAdditional experiments were performed to determine whether apomorphine and pioglitazone can protect human islets from ER stress-mediated cell death."}, "[2]": {"test_system": "INS-1 832/13 cells", "assay": "Percentage of dead cells in thapsigargin-treated INS-1 832/13 cells", "assay_type": "cell-based, rat", "settings": "10 nM thapsigargin; 10 μM pioglitazone or 500 μg/mL TUDCA, FIG. 38 left panel", "procedure": "FIG. 38 is two graphs showing the percentage of dead cells (left graph) or the median MEROS-GFP ratio (right graph) of INS-1 832/13 cells treated with DMSO alone, 10 nM thapsigargin (Tg), 10 nM Tg and 10 μM pioglitazone, or 10 nM Tg and 500 μg/mL tauroursodeoxycholic acid (TUDCA).\nFIG. 43 is a graph of the percentage of dead cells following no treatment or treatment with 10 nM thapsigargin (Tg) or treatment with 10 nM Tg and 10 nM apomorphine."}, "[3]": {"test_system": "WFS1-knockdown β-cells (INS-1 832/13-derived)", "assay": "Doxycycline-inducible WFS1 knockdown INS-1 832/13 cells, cellular model of Wolfram syndrome", "assay_type": "cell-based, rat", "settings": "2 μM doxycycline shWFS1; 10 nM apomorphine or 10 μM pioglitazone, FIG. 44", "procedure": "as §1\nAdditional experiments were performed using INS-1 832/13-derived doxycycline-inducible WFS1 knockdown cells, a cellular model of Wolfram syndrome. This model was used to test whether apomorphine and pioglitazone could prevent cell death."}},
  "note": "For at least one compound, name, drawing or mass did not settle the structure.",
  "data": [
    {"smiles": "CCc1ccc(CCOc2ccc(CC3SC(=O)NC3=O)cc2)nc1", "note": "(stereo not shown) [pioglitazone]", "values": [
      {"measurement": "Thapsigargin-mediated cell death", "setting": "[1]", "value": "could protect human islets from thapsigargin-mediated cell death"},
      {"measurement": "Cell death (percentage of dead cells)", "setting": "[2]", "value": "protect these cells from cell death"},
      {"measurement": "Cleavage of PARP (caspase 3 substrate)", "setting": "[3]", "value": "suppressed"},
      {"measurement": "Cleavage of caspase 3", "setting": "[3]", "value": "suppressed cleavage of caspase 3"}
    ]}
  ]
}
